Measurements reported in patent EP4695300A2 (dated 2026).
No constants are given. Whether binding was seen depends on the method and setting. Binding seen in cells or lysates may run through a third protein. Here binding means that the protein was enriched with, or labelled near, the bait; the list need not be complete. Tags and fused reporters may be left off the sequences shown.

Amino acid sequences for entries named in this document (tags omitted).
UniProt P08579: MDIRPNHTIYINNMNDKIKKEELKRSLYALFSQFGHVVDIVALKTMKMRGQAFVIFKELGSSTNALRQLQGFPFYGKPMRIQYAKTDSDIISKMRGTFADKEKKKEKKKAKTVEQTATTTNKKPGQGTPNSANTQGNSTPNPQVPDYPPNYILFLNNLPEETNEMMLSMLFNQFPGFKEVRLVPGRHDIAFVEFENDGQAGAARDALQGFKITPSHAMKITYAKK

Legend:
Assay in all cases: co-immunoprecipitation with 8C7 from A431 Brij-O10 lysate, mass spectrometry
[1] = biological target: EIF2a (human)
[2] = biological target: T1, LMAN1 (human) (UniProt P49257)
T1 sequence (looked up): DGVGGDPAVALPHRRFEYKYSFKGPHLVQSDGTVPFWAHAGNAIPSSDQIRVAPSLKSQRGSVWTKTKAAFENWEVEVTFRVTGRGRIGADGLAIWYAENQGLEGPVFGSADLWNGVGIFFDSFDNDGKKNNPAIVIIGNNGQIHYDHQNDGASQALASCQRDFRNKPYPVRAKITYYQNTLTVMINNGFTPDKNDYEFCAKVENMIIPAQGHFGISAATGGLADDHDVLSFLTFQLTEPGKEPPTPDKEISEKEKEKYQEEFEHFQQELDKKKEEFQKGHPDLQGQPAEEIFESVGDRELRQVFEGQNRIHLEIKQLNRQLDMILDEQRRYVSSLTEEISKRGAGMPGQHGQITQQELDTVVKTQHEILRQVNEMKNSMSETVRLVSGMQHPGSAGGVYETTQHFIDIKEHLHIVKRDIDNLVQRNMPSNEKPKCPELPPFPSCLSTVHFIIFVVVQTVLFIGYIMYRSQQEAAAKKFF

[3] = biological target: SNRPB2 (human) (UniProt P08579)

binding [1]: binds
binding [2]: binds
binding [3]: binds
B1: Prostaglandin F2 Receptor Inhibitor (PTGFRN), expressed by cells (receptor, human, UniProt Q9P2B2 26-879, looked up)
chain: VPTATLVRVVGTELVIPCNVSDYDGPSEQNFDWSFSSLGSSFVELASTWEVGFPAQLYQERLQRGEILLRRTANDAVELHIKNVQPSDQGHYKCSTPSTDATVQGNYEDTVQVKVLADSLHVGPSARPPPSLSLREGEPFELRCTAASASPLHTHLALLWEVHRGPARRSVLALTHEGRFHPGLGYEQRYHSGDVRLDTVGSDAYRLSVSRALSADQGSYRCIVSEWIAEQGNWQEIQEKAVEVATVVIQPSVLRAAVPKNVSVAEGKELDLTCNITTDRADDVRPEVTWSFSRMPDSTLPGSRVLARLDRDSLVHSSPHVALSHVDARSYHLLVRDVSKENSGYYYCHVSLWAPGHNRSWHKVAEAVSSPAGVGVTWLEPDYQVYLNASKVPGFADDPTELACRVVDTKSGEANVRFTVSWYYRMNRRSDNVVTSELLAVMDGDWTLKYGERSKQRAQDGDFIFSKEHTDTFNFRIQRTTEEDRGNYYCVVSAWTKQRNNSWVKSKDVFSKPVNIFWALEDSVLVVKARQPKPFFAAGNTFEMTCKVSSKNIKSPRYSVLIMAEKPVGDLSSPNETKYIISLDQDSVVKLENWTDASRVDGVVLEKVQEDEFRYRMYQTQVSDAGLYRCMVTAWSPVRGSLWREAATSLSNPIEIDFQTSGPIFNASVHSDTPSVIRGDLIKLFCIITVEGAALDPDDMAFDVSWFAVHSFGLDKAPVLLSSLDRKGIVTTSRRDWKSDLSLERVSVLEFLLQVHGSEDQDFGNYYCSVTPWVKSPTGSWQKEAEIHSKPVFITVKMDVLNAFKYPLLIGVGLSTVIGLLSCLIGYCSSHWCCKKEVQETRRERRRLMSMEMD
